Measurements: PubChem BioAssay (EPA / NIEHS)
The shares of active, inactive and inconclusive entries below differ from those in the screen. For part of these data: A potency beside an inconclusive call is a rough fit, not a confirmed value. Calls of active or inactive are those of the source. How the source made its calls: active means hit-call score of the fitted dose curve at least 0.9, where 1 is the maximum; inconclusive means response in the unintended direction; inactive means score below 0.9.

Sequences of proteins named here, by UniProt entry; tags and fusion partners are left off. A change or cut given only in a name is not applied to a line headed by its entry.
UniProt Q01717: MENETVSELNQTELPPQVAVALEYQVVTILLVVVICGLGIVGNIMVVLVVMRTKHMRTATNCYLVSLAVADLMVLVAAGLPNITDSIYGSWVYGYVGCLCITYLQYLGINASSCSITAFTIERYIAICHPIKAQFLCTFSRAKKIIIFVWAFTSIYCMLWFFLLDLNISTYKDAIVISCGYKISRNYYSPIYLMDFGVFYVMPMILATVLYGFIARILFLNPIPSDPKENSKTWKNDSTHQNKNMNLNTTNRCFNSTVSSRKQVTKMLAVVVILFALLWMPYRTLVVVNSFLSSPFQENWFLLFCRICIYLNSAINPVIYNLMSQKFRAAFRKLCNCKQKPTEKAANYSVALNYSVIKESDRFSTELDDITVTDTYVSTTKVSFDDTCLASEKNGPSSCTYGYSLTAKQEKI
UniProt P30536, whole entry, looked up: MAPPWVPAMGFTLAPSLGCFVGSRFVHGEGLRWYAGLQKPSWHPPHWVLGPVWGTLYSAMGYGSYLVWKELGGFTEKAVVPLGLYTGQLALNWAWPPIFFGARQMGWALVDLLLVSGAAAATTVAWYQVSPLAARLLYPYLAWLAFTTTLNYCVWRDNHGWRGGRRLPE

The compounds below were run against rat Thyrotropin Releasing Hormone Receptor (TRH), Trhr (gene 25570) (UniProt Q01717) (assay: NVS_GPCR_rTRH: NovaScreen (NVS) G Protein-Coupled Receptor Assay for rat Thyrotropin Releasing Hormone Receptor (TRH) (AID 2283329);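 further: hit means lower bound tracer signal versus DMSO baseline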).
In short: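 Rat forebrain membranes; radioligand displacement at TRH receptor by filter-based scintillation counting, read 4 h after dosing. Duplicate single-point screen at 25 uM, actives rerun in concentration series; loss of signal relative to DMSO.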

Row | SMILES | AC50 | outcome
1 | Cc1cc(=O)oc2cc(N(C)C)ccc12 | inconclusive: 25 µM | 
2 | Cc1ccc(S(=O)(=O)O)c(C)c1 | inconclusive: 0.0907 µM | inactive
3 | CCCCC(C=O)CC (centres undefined) |  | inactive
4 | Oc1ccccc1Cc1ccccc1O | inconclusive: 25 µM | 
5 | CCNc1nc(N)nc(Cl)n1 | inconclusive: 0.382 µM | 
6 | C=CCOC(Cn1ccnc1)c1ccc(Cl)cc1Cl (centres undefined) | active: 17 µM | 
7 | CC(=O)OC(C)c1ccccc1 (centres undefined) |  | inactive
8 | CCCCCCCCCCCCC[N+](C)(C)Cc1ccccc1 | inconclusive: 0.932 µM | 
9 | Cc1cc(F)ccc1-c1cc(N2CC[C@@H](O)[C@H]2CO)ncc1N(C)C(=O)C(C)(C)c1cc(C(F)(F)F)cc(C(F)(F)F)c1 |  | inactive
10 | CCCCOC(=O)CC(CC(=O)OCCCC)(OC(C)=O)C(=O)OCCCC | inconclusive: 0.434 µM | 
11 | C=CCOC(=O)c1ccc(C(=O)OCC=C)c(C(=O)OCC=C)c1 | inconclusive: 0.781 µM | 
12 | CCCC=C(C=O)CC | inconclusive: 1.65 µM | 
13 | CCN=C1C=CC(=C(c2ccc(N(CC)CC)cc2)c2ccc(N(CC)CC)cc2)c2ccccc21 |  | inactive
14 | NCCNCCN | inconclusive: 25 µM | 
15 | CC(=O)c1ccccc1O | inconclusive: 6.59 µM | 
16 | CC1CCC(C(C)C)C(O)C1 (centres undefined) | inconclusive: 5.99 µM | 
17 | CN1C(=O)c2ccccc2C1=O | inconclusive: 0.402 µM | 

Row | SMILES | AC50 | outcome
18 | CC(C)(C)C1CCC(O)CC1 (centres undefined) | inconclusive: 7 µM | 
19 | CCCCC(CC)CN1C(=O)C2C3C=CC(C3)C2C1=O (centres undefined) |  | inactive
20 | CN1CCOCC1 |  | inactive
21 | CC(C)(C)NC(=O)[C@H]1CC[C@H]2[C@@H]3CC[C@H]4NC(=O)C=C[C@]4(C)[C@H]3CC[C@]12C |  | inactive
22 | CCCCCC1CCC(=O)O1 (centres undefined) | inconclusive: 0.0799 µM | 
23 | CCCCCCCCCCCCCCCC(=O)O | inconclusive: 25 µM | 
24 | c1coc(CNc2ncnc3nc[nH]c23)c1 |  | inactive
25 | O=[N+]([O-])c1ccc(O)cc1C(F)(F)F |  | inactive
26 | CCCCCCCC/C=C\CCCCCCCC(=O)N(C)CC(=O)O | inconclusive: 25 µM | 
27 | O=C1OC[C@H](Cc2cccc(O)c2)[C@H]1Cc1cccc(O)c1 | inconclusive: 0.433 µM | 
28 | CCCCc1nc2cccnc2n1Cc1ccc(-c2ccccc2-c2nnn[nH]2)cc1 |  | inactive
29 | C=C(C)C(=O)OCCOC1CC2CC1C1C=CCC21 (centres undefined) | inconclusive: 25 µM | 
30 | CCCCCCOc1ccc(O)cc1 | inconclusive: 0.149 µM | 
31 | CC(=O)OC/C=C(C)/C=C/C=C(C)/C=C/C1=C(C)CCCC1(C)C | inconclusive: 0.0976 µM | 
32 | CC(C)=CCCC(C)=CCCC(C)=CCO | inconclusive: 25 µM | 
33 | OCc1cccc(Oc2ccccc2)c1 | inconclusive: 45.4 µM | 
34 | C=CC(C)(O)CCC=C(C)C (centres undefined) |  | inactive

3 entries out of the list, sorted by count of non-hydrogen atoms, rising:
Row | SMILES | AC50 | outcome
18 | CC(C)(C)C1CCC(O)CC1 (centres undefined) | inconclusive: 7 µM | 
25 | O=[N+]([O-])c1ccc(O)cc1C(F)(F)F |  | inactive
32 | CC(C)=CCCC(C)=CCCC(C)=CCO | inconclusive: 25 µM | 

Each compound was assayed against human Peripheral-type Benzodiazepine Receptor (PBR), TSPO (gene 706) (UniProt P30536) (assay: NVS_MP_hPBR: NovaScreen (NVS) Membrane Protein Assay for human Peripheral-type Benzodiazepine Receptor (PBR) (AID 2283331);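 further: hits reduce radioligand binding relative to DMSO baseline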).
In short: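 Radioligand displacement on human colonic cell membranes, 1 h incubation; bound radioactivity by filtration and scintillation counting. Primary screen in duplicate at 25 uM single concentration, actives followed up in concentration series; loss of binding versus DMSO.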

Row | SMILES | outcome | AC50
35 | CCNc1nc(N)nc(Cl)n1 | inactive | 
36 | CCCCOC(=O)CC(CC(=O)OCCCC)(OC(C)=O)C(=O)OCCCC | inactive | 
37 | CCN=C1C=CC(=C(c2ccc(N(CC)CC)cc2)c2ccc(N(CC)CC)cc2)c2ccccc21 |  | active: 66.9 nM
38 | CCCCCCCC/C=C\CCCCCCCC(=O)N(C)CC(=O)O | inactive | 
